Measured values published in the supplement of paper PMC4635364.
Structures can show the parent of a compound that is named as a salt. The list shows a part of the results. This data set is noisy: repeats of one test often differ as much as different tests do.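 Human fetal ventral-midbrain neural progenitor line ReNCell VM, differentiated without mitogens. Images stained for doublecortin (early neurons) or tyrosine hydroxylase (dopaminergic neurons) were scored by blinded raters against untreated wells (0 = no change). Repeats and both raters were averaged, and compounds averaging 2 or higher were picked as hits for retesting.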

These molecules were tested on ReNCell VM (assay: dopaminergic neuron differentiation score (TH+ cell fraction vs untreated, manual image score) (score (0 to 3)); higher = more TH+ dopaminergic neuron differentiation). Conditions: library: Phytochemical; 2 uM; 4 weeks; BDNF 10 ng/ml + GDNF 10 ng/ml.

Dopaminergic neuron differentiation score, inactive:
O=C(/C=C/c1ccc(O)cc1)c1ccc(O)cc1O [Isoliquiritigenin] 0
O=c1c(O)c(-c2ccc(O)cc2)oc2cc(O)cc(O)c12 [Kaempferol] 0
CN1CCc2cccc3c2[C@H]1Cc1ccc(O)c(O)c1-3 [R(-) Apomorphine hydrochloride hemihydrate] 0
O=c1c(O)c(-c2cc(O)c(O)c(O)c2)oc2cc(O)cc(O)c12 [Myricetin] 0
COc1ccccc1O [Guaiacol] 0

Same assay, conditions: library: Prestwick; 2 uM; 4 weeks; BDNF 10 ng/ml + GDNF 10 ng/ml

Dopaminergic neuron differentiation score, inactive:
Cc1cc(C(C)(C)C)cc(C)c1CC1=NCCN1 [Xylometazoline hydrochloride] 0
Cc1cnc(C(=O)NCCc2ccc(S(=O)(=O)NC(=O)NC3CCCCC3)cc2)cn1 [Glipizide] 0
CC(=O)c1ccc(S(=O)(=O)NC(=O)NC2CCCCC2)cc1 [Acetohexamide] 0
CCCCNc1cc(C(=O)O)cc(S(N)(=O)=O)c1Oc1ccccc1 [Bumetanide] 0
CC(C)C(=O)Nc1ccc([N+](=O)[O-])c(C(F)(F)F)c1 [Flutamide] 0
CCn1nc(C(=O)O)c(=O)c2cc3c(cc21)OCO3 [Cinoxacin] 0
COC(=O)C1=C(C)NC(C)=C(C(=O)OC(C)C)C1c1cccc2nonc12 (configuration not stated) [Isradipine] 0
O=C(C1CCCCC1)N1CC(=O)N2CCc3ccccc3C2C1 (configuration not stated) [Praziquantel] 0
OCc1cc(C(O)CNCCCCCCOCCCCc2ccccc2)ccc1O (configuration not stated) [Salmeterol] 1
CC(C)(C)NCC(O)c1ccc(O)c(CO)c1 (configuration not stated) [Salbutamol] 0
CC(C)(Oc1ccc(C2CC2(Cl)Cl)cc1)C(=O)O (configuration not stated) [Ciprofibrate] 0
CC(CCc1ccccc1)NCC(O)c1ccc(O)c(C(N)=O)c1 (configuration not stated) [Labetalol hydrochloride] 0
Nc1nc2ccc(OC(F)(F)F)cc2s1 [Riluzole hydrochloride] 0
CN(C)CCCN1c2ccccc2Sc2ccc(Cl)cc21 [Chlorpromazine hydrochloride] 0
CC(C(O)c1ccc(O)cc1)N1CCC(Cc2ccccc2)CC1 (configuration not stated) [Ifenprodil tartrate] 0
O=C1NCC2(CCN(CCc3ccccc3)CC2)O1 [Fenspiride hydrochloride] 0
N=C(N)c1ccc(OCCCCCOc2ccc(C(=N)N)cc2)cc1 [Pentamidine isethionate] 0
CN1CCc2cccc3c2[C@H]1Cc1ccc(O)c(O)c1-3 [R(-) Apomorphine hydrochloride hemihydrate] 0
CC(=O)O[C@]1(C(C)=O)CC[C@H]2[C@@H]3C=C(Cl)C4=CC(=O)[C@@H]5C[C@@H]5[C@]4(C)[C@H]3CC[C@@]21C [Cyproterone acetate] 0
COc1ccccc1O [Guaiacol] 0
CSc1ccc2c(c1)C(N1CCN(C)CC1)Cc1ccccc1S2 (configuration not stated) [Methiothepin maleate] 0
CN(C)CC/C=C1/c2ccccc2Sc2ccc(Cl)cc21 [Chlorprothixene hydrochloride] 0

Same assay, conditions: library: Tocriscreen; 2 uM; 4 weeks; BDNF 10 ng/ml + GDNF 10 ng/ml

Dopaminergic neuron differentiation score, inactive:
CC(C)(C)c1ccc(/C=C/C(=O)Nc2ccc3c(c2)OCCO3)cc1 0
CCn1c(=O)[nH]c2cc(Cl)c(Cl)cc21 0
Oc1cc(O)cc(/C=C/c2ccc(O)c(O)c2)c1 [Piceatannol] 0
COC(=O)C1=C(C)NC(C)=C(C(=O)OC(C)C)C1c1cccc2nonc12 (configuration not stated) [Isradipine] 0
O=c1c(O)c(-c2ccc(O)cc2)oc2cc(O)cc(O)c12 [Kaempferol] 0
COc1ccccc1N1CCN(CCCCN2C(=O)c3ccccc3C2=O)CC1 [NAN-190 hydrobromide] 0
OCc1cc(C(O)CNCCCCCCOCCCCc2ccccc2)ccc1O (configuration not stated) [Salmeterol] 0
CC(C)N(CCC(=O)c1ccc2ccccc2c1)Cc1ccccc1 0
Nc1nc2ccc(OC(F)(F)F)cc2s1 [Riluzole hydrochloride] 0
COc1cc2c(CCNC(C)=O)c[nH]c2cc1Cl [6-Chloromelatonin] 0
CCCN(CC1CC1)c1nc(C)nc(Nc2c(Cl)cc(Cl)cc2Cl)c1Cl 0
CN[C@H]1CC[C@@H](c2ccc(Cl)c(Cl)c2)c2ccccc21 [Sertraline hydrochloride] 0
OC[C@H]1O[C@@H](n2cnc3c(N[C@H]4CCC[C@@H]4O)ncnc32)[C@H](O)[C@@H]1O 0
O=C1Nc2ccc(I)cc2/C1=C/c1cc(Br)c(O)c(Br)c1 0
C1COC(NC(C2CC2)C2CC2)=N1 [Rilmenidine hemifumarate] 0
CN1CCN2c3ccccc3Cc3ccccc3C2C1 (configuration not stated) [Mianserin hydrochloride] 0
COc1ccc(CCCOC(Cn2ccnc2)c2ccc(OC)cc2)cc1 (configuration not stated) 0
NCCCCNCCCN [Spermidine trihydrochloride] 1
O=C(O)c1cc(=O)c2c(Cl)cc(Cl)cc2[nH]1 [5,7-Dichlorokynurenic acid] 1
CSc1ccc2c(c1)C(N1CCN(C)CC1)Cc1ccccc1S2 (configuration not stated) [Methiothepin maleate] 0
